Test results published in PMC12259547.
Results are given in words; binding and its absence hold for the method and conditions named. In cells and extracts the contact can be indirect. Some results given as binding are weak or reduced against the parent protein; the word gives no strength. For some assays here: Sequences can lack the tags named with a protein.

Amino acid sequences for entries named in this document (tags omitted).
UniProt P10361: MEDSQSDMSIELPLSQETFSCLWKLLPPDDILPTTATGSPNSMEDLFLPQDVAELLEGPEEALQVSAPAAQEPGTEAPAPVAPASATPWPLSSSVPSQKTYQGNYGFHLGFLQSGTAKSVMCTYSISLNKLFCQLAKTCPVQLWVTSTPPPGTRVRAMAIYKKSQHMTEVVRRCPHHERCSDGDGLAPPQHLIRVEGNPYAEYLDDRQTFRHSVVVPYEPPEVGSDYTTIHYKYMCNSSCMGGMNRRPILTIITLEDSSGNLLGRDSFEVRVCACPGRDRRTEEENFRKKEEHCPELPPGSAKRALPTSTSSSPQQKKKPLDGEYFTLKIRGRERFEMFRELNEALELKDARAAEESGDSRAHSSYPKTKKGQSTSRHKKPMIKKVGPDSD
UniProt Q3KR59: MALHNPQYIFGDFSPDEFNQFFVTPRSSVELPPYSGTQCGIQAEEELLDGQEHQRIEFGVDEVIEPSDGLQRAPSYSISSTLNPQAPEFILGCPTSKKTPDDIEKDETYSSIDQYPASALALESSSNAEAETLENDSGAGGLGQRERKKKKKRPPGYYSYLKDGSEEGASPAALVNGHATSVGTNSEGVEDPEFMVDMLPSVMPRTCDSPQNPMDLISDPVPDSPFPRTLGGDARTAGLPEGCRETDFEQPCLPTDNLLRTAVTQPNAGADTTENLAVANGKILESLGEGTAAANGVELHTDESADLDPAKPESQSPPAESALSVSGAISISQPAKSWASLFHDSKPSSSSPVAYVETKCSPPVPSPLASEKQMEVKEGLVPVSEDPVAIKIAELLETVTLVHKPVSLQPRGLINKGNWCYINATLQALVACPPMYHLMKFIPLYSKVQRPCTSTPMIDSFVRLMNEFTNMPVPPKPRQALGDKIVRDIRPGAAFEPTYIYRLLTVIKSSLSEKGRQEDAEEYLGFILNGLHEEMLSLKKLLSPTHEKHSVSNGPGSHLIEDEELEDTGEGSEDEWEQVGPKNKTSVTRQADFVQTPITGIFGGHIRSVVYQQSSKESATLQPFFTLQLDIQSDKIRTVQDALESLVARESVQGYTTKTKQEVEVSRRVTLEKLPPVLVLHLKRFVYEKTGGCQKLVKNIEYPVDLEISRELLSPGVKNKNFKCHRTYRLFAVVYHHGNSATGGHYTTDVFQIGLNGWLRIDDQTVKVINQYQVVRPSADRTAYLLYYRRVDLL

Legend:
[1] = biological target: T1, Perilipin 5 (PLIN5), FLAG-tagged (UniProt M0R7Z9); test: co-IP; H9c2 cells transfected with Flag-PLIN5 for 24 h, then Erastin (10 uM) for 24 h; lysates precipitated with anti-FLAG, anti-USP10 or anti-p53 antibodies and Protein A/G magnetic beads (IP/Co-IP kit, BersinBio), 4 C overnight; immunoblot for USP10
T1 sequence: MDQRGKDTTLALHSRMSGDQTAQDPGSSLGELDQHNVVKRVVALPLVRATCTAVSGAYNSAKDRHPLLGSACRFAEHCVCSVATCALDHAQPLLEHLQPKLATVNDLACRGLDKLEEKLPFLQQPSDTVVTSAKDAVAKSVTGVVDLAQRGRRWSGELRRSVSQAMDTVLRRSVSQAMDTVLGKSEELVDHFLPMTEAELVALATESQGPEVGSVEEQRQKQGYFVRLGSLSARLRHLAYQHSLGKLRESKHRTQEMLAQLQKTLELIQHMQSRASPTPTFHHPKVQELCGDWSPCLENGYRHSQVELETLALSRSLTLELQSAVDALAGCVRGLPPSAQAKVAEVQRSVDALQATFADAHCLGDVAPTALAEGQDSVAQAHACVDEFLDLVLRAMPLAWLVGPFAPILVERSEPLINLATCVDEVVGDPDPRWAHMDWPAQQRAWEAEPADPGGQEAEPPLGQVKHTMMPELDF

[2] = biological target: p53 (rat (endogenous in H9c2)) (UniProt P10361); test: as above

binding [1]: binds
binding [2]: binds
Substance: ubiquitin-specific peptidase 10 (USP10) (from UniProt Q3KR59 1-794) (enzyme)
